Results reported in article PMC12582974.
These are yes or no findings as the source states them, for the method shown. Where a sequence is shown, tags or fusion partners need not be part of it.

Sequences of proteins named here, by UniProt entry; tags and fusion partners are left off. A change or cut given only in a name is not applied to a line headed by its entry.
UniProt O43156: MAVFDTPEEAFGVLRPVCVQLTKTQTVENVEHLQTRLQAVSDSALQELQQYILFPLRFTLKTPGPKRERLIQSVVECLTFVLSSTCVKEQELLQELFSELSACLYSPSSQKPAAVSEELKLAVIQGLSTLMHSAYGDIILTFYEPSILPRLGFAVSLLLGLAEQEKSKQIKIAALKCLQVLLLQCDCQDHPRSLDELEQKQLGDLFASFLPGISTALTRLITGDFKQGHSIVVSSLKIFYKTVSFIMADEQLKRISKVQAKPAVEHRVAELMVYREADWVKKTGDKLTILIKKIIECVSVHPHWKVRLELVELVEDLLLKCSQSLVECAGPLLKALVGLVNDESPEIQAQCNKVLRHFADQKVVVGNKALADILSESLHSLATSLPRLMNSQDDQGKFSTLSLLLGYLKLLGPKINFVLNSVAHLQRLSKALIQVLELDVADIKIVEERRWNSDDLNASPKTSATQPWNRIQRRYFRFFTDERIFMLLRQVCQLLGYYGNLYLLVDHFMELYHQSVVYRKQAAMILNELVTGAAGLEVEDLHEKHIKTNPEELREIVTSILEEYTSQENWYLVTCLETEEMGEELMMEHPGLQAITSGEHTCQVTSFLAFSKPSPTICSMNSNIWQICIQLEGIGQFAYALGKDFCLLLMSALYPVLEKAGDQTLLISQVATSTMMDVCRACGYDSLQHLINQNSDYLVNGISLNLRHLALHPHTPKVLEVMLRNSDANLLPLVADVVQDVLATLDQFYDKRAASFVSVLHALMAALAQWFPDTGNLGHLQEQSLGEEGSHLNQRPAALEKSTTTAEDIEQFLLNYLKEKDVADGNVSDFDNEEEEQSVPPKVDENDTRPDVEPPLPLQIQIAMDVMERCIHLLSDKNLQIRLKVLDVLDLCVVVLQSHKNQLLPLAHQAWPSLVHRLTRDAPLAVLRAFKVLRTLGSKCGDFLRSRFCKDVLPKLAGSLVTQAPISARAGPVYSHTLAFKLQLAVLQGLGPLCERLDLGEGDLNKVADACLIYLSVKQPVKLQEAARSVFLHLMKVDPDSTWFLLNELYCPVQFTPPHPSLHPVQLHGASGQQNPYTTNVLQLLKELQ

Target: T1, WAC-3xFlag (human WAC with C-terminal 3xFlag tag, pACEMam-WAC-3C-3xFlag) (human) (UniProt Q9BTA9)
T1 sequence: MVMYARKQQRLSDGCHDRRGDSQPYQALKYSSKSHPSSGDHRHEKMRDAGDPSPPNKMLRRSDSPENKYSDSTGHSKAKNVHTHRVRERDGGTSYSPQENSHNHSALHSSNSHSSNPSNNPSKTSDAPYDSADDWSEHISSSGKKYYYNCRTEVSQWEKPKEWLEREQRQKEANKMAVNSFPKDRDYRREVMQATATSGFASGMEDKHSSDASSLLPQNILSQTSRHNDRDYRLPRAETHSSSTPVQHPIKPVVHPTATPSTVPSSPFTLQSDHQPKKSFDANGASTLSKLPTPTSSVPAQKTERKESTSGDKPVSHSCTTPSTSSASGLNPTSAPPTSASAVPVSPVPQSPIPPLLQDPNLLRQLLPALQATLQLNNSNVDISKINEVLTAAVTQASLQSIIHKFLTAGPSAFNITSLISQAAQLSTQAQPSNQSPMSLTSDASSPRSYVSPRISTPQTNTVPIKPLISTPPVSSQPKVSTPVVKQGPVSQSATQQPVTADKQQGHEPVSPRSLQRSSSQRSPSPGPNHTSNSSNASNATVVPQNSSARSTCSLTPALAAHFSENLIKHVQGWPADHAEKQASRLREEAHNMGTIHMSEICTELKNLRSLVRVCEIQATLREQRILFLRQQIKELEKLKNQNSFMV
Assay: pull-down; WAC-3xFlag from Expi293 lysate purified and held on anti-Flag resin (washes incl. 5 mM ATP/5 mM MgCl2); purified prey added 20 min at 4 °C in 150 mM Tris pH 8, 300 mM KCl, 10% glycerol, 0.5 mM TCEP; elution with 3xFlag peptide; SDS/PAGE and western blot; both purified

In the case of “TTI1-TTI2 subcomplex (TwinStrep-3xHA-3C-TTI1 with untagged TTI2) (from UniProt O43156 1-1089; Q6NXR4 1-508)”, the binding was “no binding”.
